A short description of the test: qHTS Assay for Lipid Storage Modulators in Drosophila S3 Cells.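 For cell number change: cells counted by Cell Tracker Red CMTPX staining in the red channel.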 The settings on record: BODIPY lipid droplet fluorescence, 18-24 h; for cell number change: measured here: cell count max response, cells fed with added oleic acid. Summed up: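 Drosophila S3 cells got compounds at several concentrations plus oleic acid (400 uM solution). Laser-scanning cytometry with 488 nm excitation read lipid droplets at 500-530 nm and cells at 575-640 nm. Percent activity was relative to 20 uM Triacsin C.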

The mark [1] stands for this setting: measured here: cell number channel AC50, cells fed with added oleic acid.
Where [2] appears, read: measured here: lipid fluorescence (Fed channel) AC50, cells fed with added oleic acid.

Structures are written as SMILES. The list shows a part of the results. The main result of the screen is listed elsewhere. These columns were measured beside it and carry no call. The list favours compounds with an active or inconclusive main result. Words in brackets tell the shape of the fitted curve; partial curves, single points and poor fits give uncertain potencies.

As a reminder, the AC50 is the concentration giving half of the maximal activity seen. A high value points to activity only at high concentration.

As to `Cc1cc2nc3c(=O)[nH]c(=O)[nH]c3nc2c([N+](=O)[O-])c1N`, the cell number change is -38.6%. Moreover, under setting [1], the AC50 was 0.651 µM [falling, full curve].

Turning to `COC1(NC(=O)c2ccccc2)C(C)=CC(=O)C=C1C`, the cell number change amounted to 19%. Further, under setting [2], the AC50 is 0.00461 µM [rising, full curve, poor fit].

As to `O=S(=O)(NCCC1=CCCCC1)c1ccc(OC(F)(F)F)cc1`, the cell number change was -54.7%. The concentration at half-maximal activity (AC50) under setting [1] was 18.4 µM [falling, single point]. Also, the AC50 under setting [2] is 6.51 µM [rising, single point].

For the molecule `CCN1CCCC1CN(Cc1cc2cc(C)ccc2[nH]c1=O)C(=O)Nc1ccccc1OC` (stereo not drawn), the cell number change was -48.1%. In addition, under setting [2], the concentration at half-maximal activity (AC50) was 29.1 µM [falling, single point].

Turning to `O=C(CCn1c(=O)oc2ccccc21)Nc1ccc(N2CCOCC2)cc1`, the cell number change turned out to be 23.5%.

Take `COC(=O)c1ccc(N2CCN(C(C)=O)CC2)c(NC(=O)c2cccnc2)c1`: the cell number change was determined as 8.6%.

For `C=CCN(c1ccccc1)S(=O)(=O)c1cccc(C(=O)NCC(c2ccc(OC)cc2)N2CCCCC2)c1` (stereo not drawn), under setting [1], the AC50 was 0.58 µM [rising, partial curve].

Consider `CCCn1c(N)c(N2CCCCC2)c(=O)n(CC(=O)Nc2ccccc2)c1=O`, for which the cell number change stood at 13.8%. Moreover, under setting [2], the half-maximal activity concentration (AC50) is 6.51 µM [rising, single point].

On to `O=C(NC1CCC(O)CC1)c1cccc2cccnc12` (stereo not drawn), for which the cell number change worked out at 1.39%. The concentration at half-maximal activity (AC50) under setting [2] was 16.4 µM [rising, partial curve].

Turning to `O=C(NC1CCCCC1)N(Cc1nc2ccccc2c(=O)[nH]1)C1CCCCC1`, the cell number change was -0.999%.

For the molecule `Cc1ccccc1NC(=O)c1ccc(C)c(S(=O)(=O)Nc2ccccn2)c1`, under setting [2], the concentration at half-maximal activity (AC50) is 0.146 µM [rising, full curve, poor fit].

For the molecule `CC(/C=C1\SC(=S)N(c2ccc(C(=O)O)cc2)C1=O)=C\c1ccccc1`, the cell number change was 10.5%.

Regarding `O=C(CN1C(=O)c2cccc3cccc1c23)N1CCN(c2ccc(F)cc2)CC1`, the cell number change was determined as 19.7%. For the same molecule, the AC50 under setting [2] was 0.461 µM [rising, full curve, poor fit].

Regarding `CCOC(=O)C1=C(N)Oc2cc(O)ccc2C1c1ccccc1` (stereo not drawn), the cell number change is -25.9%. Further, under setting [2], the AC50 is 20.6 µM [falling, single point].

In the case of `Cc1ccc(C)c(N=Nc2nc3ccccc3n2C)c1`, the cell number change is -63.1%. Also, the half-maximal activity concentration (AC50) under setting [1] was 13 µM [falling, partial curve]. In addition, under setting [2], the concentration at half-maximal activity (AC50) is 16.4 µM [falling, single point].

On to `CCOc1ccc(N(CC(=O)NCCc2ccc(F)cc2)S(=O)(=O)c2ccccc2)cc1`, for which the cell number change is 43.3%. In addition, under setting [1], the half-maximal activity concentration (AC50) was 4.61 µM [rising, full curve, poor fit].

For the molecule `CN(C)S(=O)(=O)c1ccc(N2CCCC2)c(C(=O)N2CCN(c3ccc([N+](=O)[O-])cc3)CC2)c1`, the cell number change turned out to be 30.7%.

Turning to `COc1ccc(/C=N/N2C(=O)CSC2=S)cc1`, the cell number change was 158%. Further, the half-maximal activity concentration (AC50) under setting [1] is 29.1 µM [rising, single point].

Regarding `Cn1c(SCC(=O)Nc2ccccc2)nc2ccccc2c1=O`, the cell number change was -24.6%. Under setting [2], the AC50 is 18.4 µM [rising, single point].

Consider `Cc1noc(C)c1CC(=O)N1CCCC(C(=O)c2ccc(C(C)(C)C)cc2)C1` (stereo not drawn), for which the cell number change is -47.5%. Also, the AC50 under setting [1] was 14.6 µM [falling, partial curve]. Also, the AC50 under setting [2] was 32.6 µM [falling, single point].

On to `COc1cc(C)nc(Oc2ccc(OCCOc3ccc(C)cc3)nn2)n1`, for which the cell number change is -26.7%. For the same molecule, the AC50 under setting [2] was 10.3 µM [falling, partial curve, poor fit].

Regarding `COc1ccc(NC(=O)C2CC(=O)OC2c2ccccc2)cc1` (stereo not drawn), the cell number change is -37.7%. The concentration at half-maximal activity (AC50) under setting [1] is 0.517 µM [falling, full curve]. Further, the AC50 under setting [2] is 0.13 µM [falling, full curve].

Take `O=C(OCC(=O)C12CC3CC(CC(C3)C1)C2)c1ccc(CO)cc1`: the cell number change was -3.7%. Moreover, the half-maximal activity concentration (AC50) under setting [1] was 6.51 µM [falling, single point]. Further, the concentration at half-maximal activity (AC50) under setting [2] was 6.51 µM [falling, single point].

Regarding `O=C(Nc1cccnc1)c1cc(-c2ccc(Br)cc2)nc2ccccc12`, the cell number change stood at 24.6%. Moreover, the AC50 under setting [2] was 0.82 µM [falling, partial curve].

`NC(=S)N/N=C1\CCSc2ccc(Cl)cc21`: the cell number change was determined as 6.46%. Besides, under setting [2], the AC50 was 0.461 µM [rising, full curve].

Take `O=C(Nc1ccc(C(=O)NCC2CCN(Cc3ccccc3F)CC2)cc1)C1=CSCCO1`: the cell number change is 5.89%. The AC50 under setting [2] is 14.6 µM [rising, partial curve].

Turning to `O=C(Nc1cccc(F)c1)C1CCN(C(=O)c2ccccc2Cl)CC1`, the cell number change amounted to 41.6%. The AC50 under setting [1] is 9.2 µM [rising, partial curve]. The AC50 under setting [2] is 18.4 µM [rising, partial curve].

In the case of `O=S(=O)(c1ccccc1Cl)N1CCC(Cc2ccccc2)CC1`, the cell number change was -9.01%. In addition, the concentration at half-maximal activity (AC50) under setting [1] was 0.731 µM [falling, single point]. Besides, the half-maximal activity concentration (AC50) under setting [2] was 29.1 µM [falling, single point].

With `COc1ccc(-c2nc(CSCC(=O)NCCCN3CCCC3=O)c(C)o2)cc1`, under setting [2], the concentration at half-maximal activity (AC50) is 3.26 µM [rising, single point].

In the case of `c1ccc(COc2ccc(CN3CCN(c4ccccn4)CC3)cc2)cc1`, the cell number change amounted to 6.97%.

In the case of `S=c1[nH]ccn1-c1ccc(Cl)cc1`, the cell number change worked out at 33.6%. Besides, under setting [2], the concentration at half-maximal activity (AC50) is 18.4 µM [rising, single point].

Turning to `COc1cc(S(=O)(=O)NCc2cccnc2)ccc1F`, the cell number change was found to be 41.7%. The AC50 under setting [1] was 20.6 µM [rising, single point].

With `O=C(N=C1SC2CS(=O)(=O)CC2N1c1ccc(F)cc1)C1CC1` (stereo not drawn), the cell number change came out at 20.2%. For the same molecule, the half-maximal activity concentration (AC50) under setting [2] is 13 µM [rising, partial curve].

In the case of `COc1ccc(OCc2nnc(SCC(=O)Nc3ccccc3F)o2)cc1`, the cell number change is 25%. In addition, the concentration at half-maximal activity (AC50) under setting [2] was 35.5 µM [falling, single point].

For the molecule `O=C1Nc2ccccc2/C1=N\N1CCOCC1`, the cell number change is -1.29%.

Take `Cc1cc([N+](=O)[O-])nn1Cc1ccc(C(=O)N/N=C/c2ccc(F)cc2)cc1`: the cell number change stood at 15.3%. Besides, the AC50 under setting [1] is 2.06 µM [rising, partial curve].

With `CCN(CC(=O)Nc1ccc(NC(C)=O)cc1)C(=O)Cc1cccc2ccccc12`, the cell number change is -6.71%.

On to `COc1ccc(C(CC(=O)NCCCN2CCOCC2)NS(=O)(=O)c2ccc(C)cc2)cc1` (stereo not drawn), for which the cell number change was -26.7%. Besides, the AC50 under setting [2] was 16.4 µM [falling, single point].

In the case of `O=C(CC(SCCO)c1ccc2c(c1)OCO2)c1cccs1` (stereo not drawn), the cell number change is 56.3%. In addition, the AC50 under setting [1] was 2.59 µM [rising, full curve, poor fit]. Moreover, under setting [2], the AC50 was 0.517 µM [rising, full curve].

Regarding `Oc1ccccc1N1CCN(C(=S)Nc2ccc(SC(F)F)cc2)CC1`, the cell number change is 4.88%. Also, the AC50 under setting [1] is 0.461 µM [falling, single point]. Besides, the AC50 under setting [2] is 0.13 µM [falling, full curve, poor fit].

For the molecule `Cc1cc(C)n2c(SCC(=O)Nc3ccccc3C#N)nnc2n1`, the cell number change came out at 13.2%. Moreover, the AC50 under setting [2] is 0.82 µM [rising, full curve, poor fit].

On to `Cc1cccc(OCCN2C(=O)C(=O)c3cccc(C)c32)c1`, for which the cell number change is 2.86%. For the same molecule, under setting [1], the AC50 is 3.66 µM [rising, single point].

Regarding `O=C(c1cccc(S(=O)(=O)N2CCOCC2)c1)N1CCCC1`, the cell number change was 1.64%. Moreover, the AC50 under setting [2] was 5.17 µM [falling, single point].

Consider `COc1ccc(CC(=O)Nc2nnc(SCc3ccccc3)s2)cc1S(=O)(=O)N1CCOCC1`, for which the cell number change is -6.43%.

In the case of `CC1(C)CC(=O)C=C(NCCc2ccc(S(N)(=O)=O)cc2)C1`, the AC50 under setting [2] was 29.1 µM [falling, single point].

On to `COc1ccc(C2NC(c3ccc(OC)cc3)C(C)C(=O)C2C)cc1` (stereo not drawn), for which the cell number change is 22.8%. For the same molecule, under setting [2], the AC50 is 0.651 µM [rising, full curve].

Turning to `O=C1OCCC1Sc1nc2ccccc2c(=O)n1-c1ccc(F)cc1` (stereo not drawn), the cell number change was found to be 54.2%. The concentration at half-maximal activity (AC50) under setting [1] is 0.326 µM [rising, full curve, poor fit].

Turning to `O=C(CSc1nc2sccc2c(=O)[nH]1)N1CCN(c2ccccc2)CC1`, the cell number change turned out to be 26.3%. Under setting [1], the AC50 was 0.0731 µM [rising, full curve, poor fit]. Besides, the half-maximal activity concentration (AC50) under setting [2] was 0.411 µM [rising, full curve, poor fit].

For `CC(C)Cc1ccccc1O`, the cell number change was -1.94%. Also, the half-maximal activity concentration (AC50) under setting [2] is 29.1 µM [rising, single point].

For the molecule `COC1(OC)N=C(N)C2(C#N)C(c3ccc(F)cc3)C12C#N` (stereo not drawn), the cell number change is -32.7%. In addition, the AC50 under setting [1] is 3.66 µM [falling, full curve]. The half-maximal activity concentration (AC50) under setting [2] was 5.17 µM [falling, full curve].

`CCOC(=O)C1CCN(C(=O)c2cc3cc4cc(OC)ccc4nc3o2)CC1`: the AC50 under setting [1] was 3.66 µM [rising, single point].

With `CCOc1ccc(NC(=O)CN(C)C(=O)c2cc(C)oc2C)cc1OCC`, the cell number change was -7.15%. Also, the concentration at half-maximal activity (AC50) under setting [2] was 6.51 µM [rising, single point].

For `CCCCN(C)CCNC(=O)C(=O)c1c(C)[nH]c2ccccc12`, the cell number change turned out to be 4.67%.

Consider `N#CC(c1ccccc1)c1cnccn1` (stereo not drawn), for which the cell number change is -45.8%. In addition, the AC50 under setting [1] was 0.461 µM [falling, full curve, poor fit]. Under setting [2], the half-maximal activity concentration (AC50) is 18.4 µM [falling, partial curve].

`COC(=O)c1c(NC(=O)COC(=O)C2CCC2)sc(C)c1C`: the cell number change was found to be 71.5%. Under setting [1], the AC50 is 5.17 µM [rising, partial curve].

With `CCc1cc(=O)oc2cc(OCC(=O)NCc3ccccn3)ccc12`, the AC50 under setting [2] was 2.31 µM [falling, single point].

In the case of `COc1ccc(N2CCOCC2)c(NC(=O)c2cc3ccccc3o2)c1`, the cell number change is -18.4%. Under setting [2], the half-maximal activity concentration (AC50) was 6.31 µM [rising, single point].

Turning to `C/C(=C\c1ccc(F)cc1)C(=O)c1c(C)cc(C)[nH]c1=O`, the cell number change was -12.5%.

As for `COc1ccc(S(=O)(=O)NC(CC(=O)NCCc2ccccc2)c2ccco2)cc1` (stereo not drawn), the cell number change was 59.5%. Under setting [1], the AC50 is 8.2 µM [rising, partial curve].

Regarding `CCC(=O)N(Cc1c(C)nn(-c2ccccc2)c1Cl)c1ccc(Cl)cc1`, the cell number change was determined as 39.8%. For the same molecule, the concentration at half-maximal activity (AC50) under setting [1] was 20.6 µM [rising, single point]. Also, under setting [2], the AC50 was 29.1 µM [rising, single point].

For `CC(Oc1ccccc1)C(=O)N=C1SC2CS(=O)(=O)CC2N1c1ccccc1` (stereo not drawn), the cell number change is -23.4%. For the same molecule, the AC50 under setting [2] was 0.651 µM [falling, single point].

The record behind these values is PubChem BioAssay AID2685 (National Center for Advancing Translational Sciences (NCATS), 2010).
